In assay [1] the target is endogenous FOXO1 (human) (UniProt Q12778). As to the kind of experiment: GST pull-down from LNCaP whole cell lysate, Western blot.
Another assay addresses SFB-tagged FOXO1 (human) (UniProt Q12778). Nature of the assay: TAP of SFB-FOXO1 from 293T cells, LC-MS/MS.
Assay [2] has as its target endogenous FOXO1 (human) (UniProt Q12778). As to the kind of experiment: figure legend: TAP-MS, co-IP, GST pull-down.

The chains behind the UniProt entries cited, without tags or fusion partners. Residues count along the entry.
UniProt Q12778: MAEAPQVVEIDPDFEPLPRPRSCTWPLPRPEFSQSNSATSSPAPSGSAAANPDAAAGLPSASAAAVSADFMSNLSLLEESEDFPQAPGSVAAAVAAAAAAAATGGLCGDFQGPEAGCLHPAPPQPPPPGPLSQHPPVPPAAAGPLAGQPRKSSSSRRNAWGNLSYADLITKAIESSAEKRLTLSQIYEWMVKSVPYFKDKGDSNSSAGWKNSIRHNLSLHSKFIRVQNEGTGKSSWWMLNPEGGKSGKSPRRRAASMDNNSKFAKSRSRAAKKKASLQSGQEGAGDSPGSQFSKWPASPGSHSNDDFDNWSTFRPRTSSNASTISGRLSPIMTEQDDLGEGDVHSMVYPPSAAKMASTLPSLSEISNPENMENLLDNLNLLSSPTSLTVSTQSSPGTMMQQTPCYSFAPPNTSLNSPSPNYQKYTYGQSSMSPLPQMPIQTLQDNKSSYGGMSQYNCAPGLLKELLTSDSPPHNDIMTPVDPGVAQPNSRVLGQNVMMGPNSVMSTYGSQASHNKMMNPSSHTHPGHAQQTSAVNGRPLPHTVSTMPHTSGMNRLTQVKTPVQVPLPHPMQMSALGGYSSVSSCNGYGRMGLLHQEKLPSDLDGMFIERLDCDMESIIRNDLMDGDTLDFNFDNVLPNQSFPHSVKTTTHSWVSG
UniProt P46940, residues 2-1657: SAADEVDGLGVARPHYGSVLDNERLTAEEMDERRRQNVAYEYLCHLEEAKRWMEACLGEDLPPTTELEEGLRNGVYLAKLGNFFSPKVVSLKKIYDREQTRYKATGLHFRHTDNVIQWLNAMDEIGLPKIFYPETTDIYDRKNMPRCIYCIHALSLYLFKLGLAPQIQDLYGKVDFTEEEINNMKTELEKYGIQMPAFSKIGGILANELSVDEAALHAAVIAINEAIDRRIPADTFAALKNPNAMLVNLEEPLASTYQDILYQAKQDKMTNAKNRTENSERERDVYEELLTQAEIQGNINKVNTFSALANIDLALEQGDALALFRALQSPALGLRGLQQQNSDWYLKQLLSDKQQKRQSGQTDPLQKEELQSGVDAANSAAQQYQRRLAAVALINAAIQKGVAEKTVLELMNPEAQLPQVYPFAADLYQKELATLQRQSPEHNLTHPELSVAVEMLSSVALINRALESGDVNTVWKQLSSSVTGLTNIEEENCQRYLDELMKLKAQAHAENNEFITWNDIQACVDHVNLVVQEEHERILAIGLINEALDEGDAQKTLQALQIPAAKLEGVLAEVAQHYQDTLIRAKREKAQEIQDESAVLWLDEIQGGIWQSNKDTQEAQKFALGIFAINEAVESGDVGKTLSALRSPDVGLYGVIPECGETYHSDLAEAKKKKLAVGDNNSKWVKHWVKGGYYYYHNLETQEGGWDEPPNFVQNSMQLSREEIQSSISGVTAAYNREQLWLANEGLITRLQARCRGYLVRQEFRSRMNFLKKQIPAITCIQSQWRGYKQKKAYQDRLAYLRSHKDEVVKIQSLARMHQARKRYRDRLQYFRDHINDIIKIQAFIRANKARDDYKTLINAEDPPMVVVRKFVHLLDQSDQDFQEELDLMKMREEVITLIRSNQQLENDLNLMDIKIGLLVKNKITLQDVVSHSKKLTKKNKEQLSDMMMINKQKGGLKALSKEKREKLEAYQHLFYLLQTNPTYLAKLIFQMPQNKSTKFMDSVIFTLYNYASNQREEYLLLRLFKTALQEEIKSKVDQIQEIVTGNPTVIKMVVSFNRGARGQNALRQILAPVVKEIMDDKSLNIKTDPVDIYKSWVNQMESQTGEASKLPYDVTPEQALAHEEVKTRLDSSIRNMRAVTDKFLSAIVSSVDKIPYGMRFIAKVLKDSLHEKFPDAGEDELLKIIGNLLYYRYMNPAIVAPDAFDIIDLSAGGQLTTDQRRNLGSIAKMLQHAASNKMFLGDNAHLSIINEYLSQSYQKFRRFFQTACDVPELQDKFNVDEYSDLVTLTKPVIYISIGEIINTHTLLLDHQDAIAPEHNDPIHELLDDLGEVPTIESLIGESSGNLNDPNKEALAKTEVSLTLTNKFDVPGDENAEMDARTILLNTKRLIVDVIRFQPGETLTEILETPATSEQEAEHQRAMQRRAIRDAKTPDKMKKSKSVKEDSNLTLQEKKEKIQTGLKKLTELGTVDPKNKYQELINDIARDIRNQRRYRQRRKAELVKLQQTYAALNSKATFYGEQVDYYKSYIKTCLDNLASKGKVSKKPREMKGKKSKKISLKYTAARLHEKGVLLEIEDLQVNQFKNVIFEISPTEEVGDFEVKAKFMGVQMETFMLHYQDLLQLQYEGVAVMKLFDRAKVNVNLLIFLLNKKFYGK
UniProt Q93009: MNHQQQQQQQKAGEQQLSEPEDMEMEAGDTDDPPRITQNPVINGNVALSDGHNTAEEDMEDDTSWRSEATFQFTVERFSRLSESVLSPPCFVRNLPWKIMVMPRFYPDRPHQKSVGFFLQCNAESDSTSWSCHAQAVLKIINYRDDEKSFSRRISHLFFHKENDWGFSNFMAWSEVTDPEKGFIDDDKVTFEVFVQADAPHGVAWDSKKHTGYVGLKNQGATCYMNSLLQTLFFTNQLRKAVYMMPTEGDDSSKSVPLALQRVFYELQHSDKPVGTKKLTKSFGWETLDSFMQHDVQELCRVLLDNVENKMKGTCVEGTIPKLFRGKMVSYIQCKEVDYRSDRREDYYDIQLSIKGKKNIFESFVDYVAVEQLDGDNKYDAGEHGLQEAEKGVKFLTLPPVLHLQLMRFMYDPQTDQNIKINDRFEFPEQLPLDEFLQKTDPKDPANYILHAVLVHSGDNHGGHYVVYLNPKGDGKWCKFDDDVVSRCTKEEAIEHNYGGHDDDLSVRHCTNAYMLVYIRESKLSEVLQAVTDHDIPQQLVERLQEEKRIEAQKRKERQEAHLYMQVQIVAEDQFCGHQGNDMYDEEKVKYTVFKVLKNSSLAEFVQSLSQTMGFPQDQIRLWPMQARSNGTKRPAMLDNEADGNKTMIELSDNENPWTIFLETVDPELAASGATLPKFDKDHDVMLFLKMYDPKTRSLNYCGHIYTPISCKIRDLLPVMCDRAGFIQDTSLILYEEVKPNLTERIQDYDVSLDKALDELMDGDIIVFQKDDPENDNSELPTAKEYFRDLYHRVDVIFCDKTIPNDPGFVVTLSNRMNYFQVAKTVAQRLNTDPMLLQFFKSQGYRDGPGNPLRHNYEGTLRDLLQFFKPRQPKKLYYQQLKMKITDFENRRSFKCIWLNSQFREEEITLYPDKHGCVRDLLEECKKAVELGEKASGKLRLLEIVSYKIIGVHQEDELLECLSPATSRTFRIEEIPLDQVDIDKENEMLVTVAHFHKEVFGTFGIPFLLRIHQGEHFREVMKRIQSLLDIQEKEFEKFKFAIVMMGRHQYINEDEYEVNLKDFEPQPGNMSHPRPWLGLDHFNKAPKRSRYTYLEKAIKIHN

No constants are given. Whether binding was seen depends on the method and setting. For part of these data: In cells and extracts the contact can be indirect. Some entries that bind do so weakly or less than the wild type.

In the case of “GST-IQGAP1 recombinant protein of the coiled-coil domain (from UniProt P08515 1-218; P46940 166-670)”, the binding result with endogenous FOXO1 (human) [1] is given as “binds”. With “USP7 (from UniProt Q93009 1-1102) (enzyme)”, in the assay with SFB-tagged FOXO1 (human), the binding result is “binds”. With “endogenous IQGAP1 (from UniProt P46940 2-1657)”, in the assay with endogenous FOXO1 (human) [2], the binding entry is “binds”.

(Values after patent US20190194276A1 (MAYO FOUNDATION FOR MEDICAL EDUCATION AND RESEARCH, published 2019).)
